Values quoted from earlier work as cited in patent US12151062B2, “Compositions and devices to administer pharmaceutical compositions nasally” (BOARD OF REGENTS, THE UNIVERSITY OF TEXAS SYSTEM, priority 2016, dated 2024).

Conditions: chitosan nanosuspension vs donepezil suspension; rats

- bioavailability: significantly higher bioavailability
- maximum concentration in the brain: significantly higher
Compound: COc1cc2c(cc1OC)C(=O)C(CC1CCN(Cc3ccccc3)CC1)C2 (centres unmarked) [Donepezil]
